For at least one compound, name, drawing or mass did not settle the structure. Non-standard residues stand in square brackets, D forms with d. Residues, ends and D or L forms follow the SMILES beside them. dDab = NCC[C@@H](N)C(=O)O; Orn = NCCC[C@H](N)C(=O)O
Experiments:
μ-opioid receptor = target: T1, μ-opioid receptor (Rattus norvegicus, UniProt P33535); format: binding; conditions: read-out: [3H]DAGO Ki^μ
T1 construct: displacement of the radioligands from the rat brain membrane preparations; from tissue; host or cells: rat brain membrane preparations

Sequences of proteins named here, by UniProt entry; tags and fusion partners are left off. A change or cut given only in a name is not applied to a line headed by its entry.
UniProt P33535, whole entry: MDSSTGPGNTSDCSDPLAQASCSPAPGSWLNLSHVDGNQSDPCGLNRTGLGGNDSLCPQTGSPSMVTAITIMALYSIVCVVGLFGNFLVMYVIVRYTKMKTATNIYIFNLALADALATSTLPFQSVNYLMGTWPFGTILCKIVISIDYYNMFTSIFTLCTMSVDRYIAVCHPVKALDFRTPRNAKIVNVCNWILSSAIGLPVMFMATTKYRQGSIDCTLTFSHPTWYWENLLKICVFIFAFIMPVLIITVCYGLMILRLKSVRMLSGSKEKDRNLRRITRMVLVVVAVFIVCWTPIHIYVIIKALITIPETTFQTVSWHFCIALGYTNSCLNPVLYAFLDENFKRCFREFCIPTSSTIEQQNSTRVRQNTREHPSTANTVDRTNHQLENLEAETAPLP
UniProt P33533, whole entry: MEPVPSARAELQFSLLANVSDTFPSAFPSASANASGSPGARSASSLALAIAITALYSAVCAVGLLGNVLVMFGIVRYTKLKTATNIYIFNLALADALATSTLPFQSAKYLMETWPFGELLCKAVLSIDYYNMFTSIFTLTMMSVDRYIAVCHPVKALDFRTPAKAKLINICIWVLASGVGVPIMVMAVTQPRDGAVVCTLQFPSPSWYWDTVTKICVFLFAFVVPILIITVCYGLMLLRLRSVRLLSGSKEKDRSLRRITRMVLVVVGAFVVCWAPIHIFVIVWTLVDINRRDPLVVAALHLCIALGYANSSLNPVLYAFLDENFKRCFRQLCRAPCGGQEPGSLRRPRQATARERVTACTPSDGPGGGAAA

δ-opioid receptor = target: T2, δ-opioid receptor (Rattus norvegicus, UniProt P33533); format: binding; conditions: read-out: [3H]HSLET Ki^δ
T2 construct: displacement of the radioligands from the rat brain membrane preparations; from tissue; host or cells: rat brain membrane preparations

Q: Which results are given for `NCCC[C@H](NC(=O)[C@H](Cc1ccccc1)NC(=O)[C@@H](CCN)NC(=O)[C@@H](N)Cc1ccc(O)cc1)C(N)=O` [BCH-2580, H-Tyr-D-A2 bu-Phe-Orn-NH2] (H-Y[dDab]F[Orn]-NH2)?
A: Ki (μ-opioid receptor): 9.28 nM; Ki (δ-opioid receptor): 3820 nM
